Primary screen of a compound library

Chains of the proteins cited; added tags and fusions are not shown. Residues count along the entry.
UniProt P9WFT3, whole entry: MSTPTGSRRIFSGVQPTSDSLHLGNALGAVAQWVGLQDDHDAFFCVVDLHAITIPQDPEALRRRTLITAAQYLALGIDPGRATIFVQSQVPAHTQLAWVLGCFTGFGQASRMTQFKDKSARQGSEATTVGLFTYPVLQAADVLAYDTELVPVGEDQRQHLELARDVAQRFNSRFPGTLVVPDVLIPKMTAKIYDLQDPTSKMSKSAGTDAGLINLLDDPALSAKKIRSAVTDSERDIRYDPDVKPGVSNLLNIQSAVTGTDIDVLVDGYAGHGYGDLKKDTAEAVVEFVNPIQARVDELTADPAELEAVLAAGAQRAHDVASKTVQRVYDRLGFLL
UniProt Q4DA54, 1-478: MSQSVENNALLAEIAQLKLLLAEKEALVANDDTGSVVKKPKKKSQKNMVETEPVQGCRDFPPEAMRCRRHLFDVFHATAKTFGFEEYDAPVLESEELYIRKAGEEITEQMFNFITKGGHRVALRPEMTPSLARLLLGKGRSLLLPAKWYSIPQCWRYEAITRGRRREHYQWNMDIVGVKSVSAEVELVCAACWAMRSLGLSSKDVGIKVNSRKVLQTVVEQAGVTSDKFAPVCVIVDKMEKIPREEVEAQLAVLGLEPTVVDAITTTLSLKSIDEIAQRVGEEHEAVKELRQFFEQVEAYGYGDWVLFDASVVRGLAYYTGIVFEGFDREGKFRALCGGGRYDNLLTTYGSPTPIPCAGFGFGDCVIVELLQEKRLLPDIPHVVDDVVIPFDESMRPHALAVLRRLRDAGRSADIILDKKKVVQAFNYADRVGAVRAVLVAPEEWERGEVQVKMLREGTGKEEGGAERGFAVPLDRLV

MtTrpRS: 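Enzyme assay of tryptophanyl-tRNA synthetase; the read-out is not stated. Target: Tryptophan-tRNA ligase, Mycobacterium tuberculosis (UniProt P9WFT3). Tested at 10 µM. Direction is not recorded; retested compounds ran higher, which suggests that high means inhibition. About 65,000 compounds were tested under these conditions; 0.098% (about 64) showed 50% or more at least once.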
Leishmania in macrophages: 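Cell assay of Leishmania donovani living inside macrophages; the read-out is not stated. Concentration: 30 µM. Direction is inferred from retests: higher values go with stronger inhibition. Size under these conditions: about 69,000 compounds, about 1,000 of them at 50% or above in at least one test.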
TcHisRS: 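Enzyme assay of histidyl-tRNA synthetase; the read-out is not stated. Target: Histidine-tRNA ligase, Trypanosoma cruzi CL Brener (UniProt Q4DA54). Concentration: 30 µM. Higher reads as stronger inhibition (inferred: compounds with an IC50 in retests scored well above the rest). About 69,000 compounds were tested under these conditions; 0.045% (about 31) showed 50% or more at least once.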

Each number is a percent effect as filed.
The controls that fix the scale are not given in the record; negative values are as filed.
Compounds were drawn at random from those tested, without regard to their results.
Two or more numbers in one place are separate tests of the same structure; such repeats can differ widely.
A dash means the value is not listed here; it may have been measured.

* O=C(CN1CCS(=O)(=O)CC1)NC1CCOc2ccccc21 (stereo not given) : MtTrpRS: -2.02%; Leishmania in macrophages: 23.53%; TcHisRS: 7.143%
* COc1ccccc1N1CCCC(NC(=O)Nc2cccnc2)C1 (stereo not given) : MtTrpRS: 2.878%; Leishmania in macrophages: 18.32%; TcHisRS: 6.173%
* Cc1noc(C)c1CN1CCN(C(C)c2nc(C3CC3)no2)CC1 (stereo not given) : MtTrpRS: 3.918%; Leishmania in macrophages: 27.68%; TcHisRS: 4.843%
* O=C(O)C(F)(F)F.O=C(O)C(F)(F)F.[H][C@@]12COC[C@]1(CNC(=O)c1ccno1)CN(Cc1cccnc1)C2 : Leishmania in macrophages: 19.24%
* CCS(=O)(=O)NCCCNc1cc(N2CCCC2CO)ncn1 (stereo not given) : MtTrpRS: -2.039%; Leishmania in macrophages: -34%; TcHisRS: 4.878%
* Cn1cccc1C(=O)N1CCC(O)(CN2CCc3ccccc3C2)C1 (stereo not given) : Leishmania in macrophages: -5.738% and -4.42%; TcHisRS: 7.692%
* Cc1nc(CN2CCCC3(CCN(c4cccnc4)C3=O)C2)cs1 (stereo not given) : MtTrpRS: 1.465%; TcHisRS: 5.882%
* COc1cc(C(=O)NC2COc3ccccc3C2)ccc1OCC(N)=O (stereo not given) : MtTrpRS: -6.699%; Leishmania in macrophages: 16.8%; TcHisRS: 1.961%
* Cc1nc(CN2CCCC2Cn2cncn2)nc2ccccc12 (stereo not given) : MtTrpRS: -0.7323%; Leishmania in macrophages: 12.17%; TcHisRS: 15.97%
* CN1CCN(Cc2ccccc2CNC(=O)c2ccc(Br)cc2)CC1 : MtTrpRS: 3.018%; Leishmania in macrophages: 6.609%; TcHisRS: 4.237%
* N#CCCN(c1ccc(F)cc1)S(=O)(=O)CC1CCCCO1 (stereo not given) : MtTrpRS: -0.8738%; Leishmania in macrophages: 5.161%; TcHisRS: 4.902%
* O=C1CSc2ccccc2N1CC(=O)N1CCCCC1c1nccs1 (stereo not given) : MtTrpRS: 5.998%; Leishmania in macrophages: 22.21%; TcHisRS: 2.128%
* Cc1ccccc1Cn1nnc2cc3c(cc2c1=O)OCCO3 : MtTrpRS: 2.037%; Leishmania in macrophages: -12.03%; TcHisRS: 2.232%
* CCN1CCOC(CNCc2ccccc2OCC(=O)N(C)C)C1 (stereo not given) : MtTrpRS: -2.827%; Leishmania in macrophages: 26.88%; TcHisRS: -2.273%
* CC(C)n1ccc(C(=O)N2CCCC(n3cncn3)C2)n1 (stereo not given) : MtTrpRS: 1.656%; Leishmania in macrophages: -12.57%; TcHisRS: 1.433%
* CCN(Cc1cccc(F)c1)S(=O)(=O)N1CCOCC1 : MtTrpRS: 2.803%; Leishmania in macrophages: -0.3141%; TcHisRS: 1.667%
* CO[C@@H]1CCN(Cc2c(C)noc2C)[C@@H]2CN(Cc3cccnc3)C[C@@H]21 : TcHisRS: 6.667%
* O=C(NCc1cn2c(n1)CN(Cc1ccncc1)CC2)C1CCC1 : MtTrpRS: 5.858%; TcHisRS: 4.902%
* CC(C)(C)c1ccc(-c2n[nH]c3c2CN(CC2CCOC2)CC3)cc1 (stereo not given) : MtTrpRS: -13.77%; Leishmania in macrophages: -11.7%; TcHisRS: 1.734%
* CC(O)CN1CCN(C(=O)CN(C)c2cnccn2)CC1 (stereo not given) : MtTrpRS: -4.257%; Leishmania in macrophages: 16.43%; TcHisRS: 1.667%
* CC(=O)N1C[C@@H]2CC[C@H](C1)N(S(=O)(=O)c1ccc(F)cc1Cl)C2 : MtTrpRS: 1.708%; TcHisRS: 3.004%
* O=C(O)C(F)(F)F.[H][C@@]12CCN(CC3CCOCC3)[C@@]1([H])CCN2C(=O)c1cccc(Cl)c1 : Leishmania in macrophages: 39.19%
* O=C(c1cccnc1-n1cncn1)N1CCC(Nc2ccccc2)CC1 : MtTrpRS: -6.79%; Leishmania in macrophages: 31.32%; TcHisRS: 6.897%
* Cc1noc(C)c1CCc1nc(C2CCOC2)no1 (stereo not given) : MtTrpRS: -2.295%; Leishmania in macrophages: 32.25%; TcHisRS: 11.44%
* CN(C)CC1CSCCCN1S(=O)(=O)Cc1ccc(C(F)(F)F)cc1 (stereo not given) : MtTrpRS: -3.419%; Leishmania in macrophages: -40.07% and -3.192%; TcHisRS: 4.124%
* COc1ccccc1OCCCc1cc(C#N)ccn1 : MtTrpRS: 2.534%; Leishmania in macrophages: -159%; TcHisRS: 2.186%
* COc1ccc(NC(=O)N2CCC(c3noc(C)n3)CC2)cc1C : MtTrpRS: 0.09671%; Leishmania in macrophages: 14.57%; TcHisRS: 3.804%
* Cc1cncc(C2CCCN(C(=O)c3cn(C)nc3C)C2)n1 (stereo not given) : Leishmania in macrophages: -3.454% and 6.798%; TcHisRS: 4.396%
* CCn1nc(C)c2nc(C(C)C)nc(NCCCO)c21 : MtTrpRS: 0.201%; Leishmania in macrophages: 12.54%; TcHisRS: -0.5464%
* Cc1ccc(N2C[C@H]3CCC[C@@]3(COc3cccnc3)C2)nn1 : MtTrpRS: -6.673%; TcHisRS: 8.046%
* CCSC(C)C(=O)N1CCC(c2nn(C)c(=O)n2-c2ccccc2)CC1 (stereo not given) : MtTrpRS: 1.288%; Leishmania in macrophages: 4.157%; TcHisRS: 8.929%
* CN(C)C(=O)c1ccc(C2CCCN2C(=O)c2cccc3c2OCC3)s1 (stereo not given) : MtTrpRS: -0.7766%; Leishmania in macrophages: -10.59%; TcHisRS: 2.155%
* Cc1nc(CN2CCN(C(=O)C(C(C)C)n3cncn3)CC2)cs1 (stereo not given) : MtTrpRS: 0.9684%; Leishmania in macrophages: 7.998%; TcHisRS: 3.139%
* COc1ccc(C(=O)Nc2ccc3c(c2)C(=O)NC3)cc1Br : MtTrpRS: 2.688%; Leishmania in macrophages: 13.32%; TcHisRS: 8.19%
* CN(C)CCO[C@@H]1CC[C@H]2[C@H]1OCCN2C(=O)c1ccc(F)cc1 : MtTrpRS: -6.08%; TcHisRS: 0%
* CNC(=O)[C@@H]1C[C@@H](N)CN1C1CCN(c2ccccc2F)CC1 : MtTrpRS: -5.307%; Leishmania in macrophages: 14.73%; TcHisRS: 2.809%
* O=C1NCCCCC1Sc1nnc(C2CC2)n1C1CC1 (stereo not given) : MtTrpRS: -2.21%; Leishmania in macrophages: 13.21%; TcHisRS: 1.653%
* CCc1nnc2n1CCN(Cc1csc(-c3ccccc3)n1)C2 : MtTrpRS: -1.57%; Leishmania in macrophages: 20.09%; TcHisRS: -7.407%

3 of the entries, repeated:

| compound | MtTrpRS | Leishmania in macrophages | TcHisRS |
|---|---|---|---|
| `Cc1nc(CN2CCCC2Cn2cncn2)nc2ccccc12` (stereo not given) | -0.7323 | 12.17 | 15.97 |
| `CN(C)C(=O)c1ccc(C2CCCN2C(=O)c2cccc3c2OCC3)s1` (stereo not given) | -0.7766 | -10.59 | 2.155 |
| `Cc1ccc(N2C[C@H]3CCC[C@@]3(COc3cccnc3)C2)nn1` | -6.673 | - | 8.046 |

Data taken from ChEMBL document CHEMBL3988442, “University of Dundee, Small-Polar-MMV Screening Library” (2021).